Record: PubChem BioAssay AID504784 (Drosophila RNAi Screening Center, 2011)

Test: 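Fly genes whose silencing alters how much lipid cells keep in droplets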 (primary screen)
Cells: Drosophila Kc167 embryonic cells
Reagents: long dsRNA against Drosophila genes, about 250 ng dsRNA per well
Timing: 4 days
Conditions: cells fed 400 µM oleic acid bound to BSA
Read-out: 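Cells imaged and segmented; ratio of lipid droplet area to nuclear area, log-transformed, then normalised as a B-score over the screen; higher means more stored lipid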
Direction: droplet/nuclear area B-score: higher = more stored lipid (overstorage)
In all, the deposit lists about 17,000 reagents; this is a random part of those with a known target gene and a result. 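Each column is one replicate's B-score; the combined score over replicates was not deposited, so single values may mislead.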 A plus sign joins genes that one reagent is predicted to hit. Not all columns of the deposit are shown.

CG7239 [DRSC03038] → droplet/nuclear area B-score, replicate 1: -0.0217
CG7239 [DRSC23113] → droplet/nuclear area B-score, replicate 1: 0.995
Camta (Calmodulin-binding transcription activator) [DRSC06440] → droplet/nuclear area B-score, replicate 1: 2.15
Camta (Calmodulin-binding transcription activator) [DRSC06441] → droplet/nuclear area B-score, replicate 1: 1.21
Camta (Calmodulin-binding transcription activator) [DRSC07272] → droplet/nuclear area B-score, replicate 1: 0.00606
Camta (Calmodulin-binding transcription activator) [DRSC23081] → droplet/nuclear area B-score, replicate 1: 0.0319
Camta (Calmodulin-binding transcription activator) [DRSC23156] → droplet/nuclear area B-score, replicate 1: -0.951
CG1850 [DRSC06762] → droplet/nuclear area B-score, replicate 1: -1.48
CG46301 [DRSC01916] → droplet/nuclear area B-score, replicate 1: 0.698
mEFTu1 (mitochondrial translation elongation factor Tu 1) [DRSC06959] → droplet/nuclear area B-score, replicate 1: 0.584
msd1 (mitotic spindle density 1) [DRSC08383] → droplet/nuclear area B-score, replicate 1: -0.31
CadN2 + CG42830 [DRSC03062] → droplet/nuclear area B-score, replicate 1: 0.419
CadN2 + CG42830 [DRSC03063] → droplet/nuclear area B-score, replicate 1: -0.00197
CadN2 + CG42830 [DRSC03064] → droplet/nuclear area B-score, replicate 1: -0.971
CG7460 [DRSC10850] → droplet/nuclear area B-score, replicate 1: 0.00664
Scp2 (Sarcoplasmic calcium-binding protein 2) [DRSC13166] → droplet/nuclear area B-score, replicate 1: 0.0382
Scp2 (Sarcoplasmic calcium-binding protein 2) [DRSC16854] → droplet/nuclear area B-score, replicate 1: 0.0731
Or92a (Odorant receptor 92a) [DRSC16771] → droplet/nuclear area B-score, replicate 1: 0.0427
su(r) (suppressor of rudimentary) [DRSC18705] → droplet/nuclear area B-score, replicate 1: 0.516
CG10467 [DRSC09728] → droplet/nuclear area B-score, replicate 1: 1.18
CG9259 [DRSC03174] → droplet/nuclear area B-score, replicate 1: -0.376
exd (extradenticle) [DRSC20330] → droplet/nuclear area B-score, replicate 1: 0.909
Epp (Ecdysteroid phosphate phosphatase) [DRSC14607] → droplet/nuclear area B-score, replicate 1: 0.295
CG6833 [DRSC10721] → droplet/nuclear area B-score, replicate 1: -1.67
RtcB (RtcB RNA ligase) [DRSC03280] → droplet/nuclear area B-score, replicate 1: 0.0194
CG8677 [DRSC03107] → droplet/nuclear area B-score, replicate 1: 0.391
klar (klarsicht) [DRSC08718] → droplet/nuclear area B-score, replicate 1: -0.307
klar (klarsicht) [DRSC22393] → droplet/nuclear area B-score, replicate 1: 1.08
CG13314 [DRSC09985] → droplet/nuclear area B-score, replicate 1: -0.168
tea (telomere ends associated) [DRSC06110] → droplet/nuclear area B-score, replicate 1: 2.52
tea (telomere ends associated) [DRSC06236] → droplet/nuclear area B-score, replicate 1: 2.97
CG10958 [DRSC17768] → droplet/nuclear area B-score, replicate 1: -0.756
CG6788 + CR32496 [DRSC22043] → droplet/nuclear area B-score, replicate 1: 0.383
CG42353 + CG42354 [DRSC23154] → droplet/nuclear area B-score, replicate 1: -1.07
CG13458 [DRSC10005] → droplet/nuclear area B-score, replicate 1: 1.15
CG13196 [DRSC06321] → droplet/nuclear area B-score, replicate 1: 1.18
Bgb [DRSC08148] → droplet/nuclear area B-score, replicate 1: -0.195
Jupiter [DRSC15204] → droplet/nuclear area B-score, replicate 1: -2.92
Jupiter [DRSC15205] → droplet/nuclear area B-score, replicate 1: -2.65
Jupiter [DRSC15389] → droplet/nuclear area B-score, replicate 1: 1.62
